PubChem BioAssay AID1508597, Cure First, 2020

Aim: 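Knock-downs altering ovarian cancer cell survival with or without PARP inhibitor rucaparib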 (primary screen)
System: human ovarian carcinoma lines grown from tumours: OCI-P5x (papillary serous) and OCI-C5x (clear cell)
Knock-down reagent: siRNA pool against human genes, 1.25 pmol siRNA per well
Duration: 72 h or 96 h, depending on the cell culture
Challenge: rucaparib 20 µM (about IC30) or vehicle, present until read-out
Rucaparib or vehicle: Rucaparib
Cell line: OCI-P5x (serous)
Measurement: 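Luminescent ATP-based viability assay read 72 or 96 h after transfection, depending on culture, given as normalised percent viability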
Scale: viability, normalised: higher = more viable cells remaining
Rule for the call: 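Active when normalised viability falls below 80 percent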
Calls: active = viability under 80%; inactive = viability 80% or more
This is a random part of the about 2,100 reagents, under one of the conditions tested. 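Calls flag viability under 80% in either arm, not effects specific to rucaparib; the reference for percent is not stated.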 Unmarked entries are inactive. Some reagents were tested in more than one well and are listed for each. Not stated in the record: the 100% reference.

{"gene symbol":"RAD23A","technical replicate":"1","viability, normalised (%)":"72.1 (active)"}
{"gene symbol":"RAD23A","technical replicate":"2","viability, normalised (%)":"67.2 (active)"}
{"gene symbol":"RAD23A","technical replicate":"3","viability, normalised (%)":"43.9 (active)"}
{"gene symbol":"PRKAR1B","technical replicate":"1","viability, normalised (%)":107}
{"gene symbol":"PRKAR1B","technical replicate":"2","viability, normalised (%)":129}
{"gene symbol":"PRKAR1B","technical replicate":"3","viability, normalised (%)":129}
{"gene symbol":"NEK8","technical replicate":"1","viability, normalised (%)":"79.4 (active)"}
{"gene symbol":"NEK8","technical replicate":"2","viability, normalised (%)":86.5}
{"gene symbol":"NEK8","technical replicate":"3","viability, normalised (%)":"52.5 (active)"}
{"gene symbol":"ELANE","technical replicate":"1","viability, normalised (%)":"59.5 (active)"}
{"gene symbol":"ELANE","technical replicate":"2","viability, normalised (%)":"47.7 (active)"}
{"gene symbol":"ELANE","technical replicate":"3","viability, normalised (%)":80.5}

The list goes on; the last 4 above are carried over.
{"gene symbol":"NEK8","technical replicate":"3","viability, normalised (%)":"52.5 (active)"}
{"gene symbol":"ELANE","technical replicate":"1","viability, normalised (%)":"59.5 (active)"}
{"gene symbol":"ELANE","technical replicate":"2","viability, normalised (%)":"47.7 (active)"}
{"gene symbol":"ELANE","technical replicate":"3","viability, normalised (%)":80.5}
{"gene symbol":"FNTA","technical replicate":"1","viability, normalised (%)":"67.5 (active)"}
{"gene symbol":"FNTA","technical replicate":"2","viability, normalised (%)":"62.5 (active)"}
{"gene symbol":"FNTA","technical replicate":"3","viability, normalised (%)":"77.8 (active)"}
{"gene symbol":"GTF2H4","technical replicate":"1","viability, normalised (%)":"55.4 (active)"}
{"gene symbol":"GTF2H4","technical replicate":"1","viability, normalised (%)":"59.2 (active)"}
{"gene symbol":"GTF2H4","technical replicate":"2","viability, normalised (%)":81.4}
{"gene symbol":"GTF2H4","technical replicate":"2","viability, normalised (%)":"53.2 (active)"}
{"gene symbol":"GTF2H4","technical replicate":"3","viability, normalised (%)":"67 (active)"}
{"gene symbol":"GTF2H4","technical replicate":"3","viability, normalised (%)":"53.7 (active)"}
{"gene symbol":"DLG2","technical replicate":"1","viability, normalised (%)":"75.7 (active)"}
{"gene symbol":"DLG2","technical replicate":"2","viability, normalised (%)":92.5}
{"gene symbol":"DLG2","technical replicate":"3","viability, normalised (%)":101}
{"gene symbol":"LIG4","technical replicate":"1","viability, normalised (%)":"62.5 (active)"}
{"gene symbol":"LIG4","technical replicate":"1","viability, normalised (%)":"60.2 (active)"}
{"gene symbol":"LIG4","technical replicate":"2","viability, normalised (%)":"60.6 (active)"}
{"gene symbol":"LIG4","technical replicate":"2","viability, normalised (%)":"62.6 (active)"}
{"gene symbol":"LIG4","technical replicate":"3","viability, normalised (%)":"59.6 (active)"}
{"gene symbol":"LIG4","technical replicate":"3","viability, normalised (%)":"76.4 (active)"}
{"gene symbol":"ASF1B","technical replicate":"1","viability, normalised (%)":"60.6 (active)"}
{"gene symbol":"ASF1B","technical replicate":"2","viability, normalised (%)":"72.8 (active)"}
{"gene symbol":"ASF1B","technical replicate":"3","viability, normalised (%)":"58.4 (active)"}
